Reference: PubChem BioAssay AID1259254 (NCATS, 2017)

Screen: 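Gene knock-downs that lead to re-replication, shown by excess G2 DNA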 (primary screen)
Cell system: human HCT116 colorectal cancer cells
Reagent: single siRNA against human genes
Time to read-out: 3 days
Read-out: 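Imaged Hoechst DNA stain sorts each cell into a cycle phase by DNA amount; per plate, G2 fraction set to 0% for non-targeting and 100% for GMNN siRNA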
Scale: G2 robust z-score and G2 cells, % of GMNN control: higher = more G2 cells, more excess DNA replication; raw share of cells in G2: higher = larger share of cells with G2 DNA content
Hit rule: 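Active siRNAs have a G2 robust z of 5 or more median absolute deviations over the median, which in these data means about 38% or higher of GMNN control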
Here is an unselected part of about 59,000 reagents tested. About 1,550 of them (2.6%) were called active. 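G2 share is only a proxy for re-replication; each gene was hit by three separate siRNAs, and active genes were retested.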 Raw values vary from plate to plate and are shown uncorrected. Unmarked entries are inactive. The numbers tell different reagents against one gene apart. No sequences are given here. Not stated in the record: the amount of reagent.

Target gene | siRNA no. | G2 robust z-score | G2 cells, % of GMNN control | raw share of cells in G2 (%)
PGM2L1 (GeneID 283209) | 1 | -0.365 | 0.401 | 3.79
PGM2L1 (GeneID 283209) | 2 | 1.75 | 15.3 | 8.96
PGM2L1 (GeneID 283209) | 3 | -0.279 | 1.01 | 3.57
RANGRF (GeneID 29098) | 1 | -0.548 | -0.886 | 4.21
RANGRF (GeneID 29098) | 2 | 0.0773 | 3.51 | 4.36
RANGRF (GeneID 29098) | 3 | -0.582 | -1.13 | 3.42
LOC729316 (GeneID 729316) | 1 | 0.388 | 5.7 | 6.11
LOC729316 (GeneID 729316) | 2 | 1.72 | 15.1 | 8.19
LOC729316 (GeneID 729316) | 3 | 0.706 | 7.93 | 6.2
ZNF804B (GeneID 219578) | 1 | -0.806 | -2.71 | 2.6
ZNF804B (GeneID 219578) | 2 | -0.854 | -3.04 | 2.09
ZNF804B (GeneID 219578) | 3 | -0.56 | -0.972 | 2.88
SOAT1 (GeneID 6646) | 1 | -0.783 | -2.54 | 4.83
SOAT1 (GeneID 6646) | 2 | 0.0421 | 3.26 | 5.67
SOAT1 (GeneID 6646) | 3 | -0.224 | 1.39 | 4.42
DNHD1 (GeneID 144132) | 1 | -0.201 | 1.56 | 4.35
DNHD1 (GeneID 144132) | 2 | -0.0766 | 2.43 | 3.66
DNHD1 (GeneID 144132) | 3 | 0.433 | 6.01 | 5.17
DNHD1 (GeneID 144132) | 4 | 0.417 | 5.9 | 5.79
DNHD1 (GeneID 144132) | 5 | 2.05 | 17.4 | 9.78
DNHD1 (GeneID 144132) | 6 | -0.582 | -1.13 | 2.92
DNHD1 (GeneID 144132) | 7 | -1.09 | -4.71 | 2.16
DNHD1 (GeneID 144132) | 8 | -0.835 | -2.91 | 2.14
DNHD1 (GeneID 144132) | 9 | 1.03 | 10.2 | 9.03
ADISSP (GeneID 54976) | 1 | -0.238 | 1.29 | 4.07
ADISSP (GeneID 54976) | 2 | -0.337 | 0.598 | 4.52
ADISSP (GeneID 54976) | 3 | -0.725 | -2.13 | 2.49
NAF1 (GeneID 92345) | 1 | 1.49 | 13.4 | 9.78
NAF1 (GeneID 92345) | 2 | 0.563 | 6.93 | 5.17
NAF1 (GeneID 92345) | 3 | -0.0663 | 2.5 | 3.72
TAF5 (GeneID 6877) | 1 | -0.59 | -1.19 | 2.99
TAF5 (GeneID 6877) | 2 | 0.911 | 9.38 | 9.24
TAF5 (GeneID 6877) | 3 | 0.366 | 5.54 | 5.12
SLC25A24 (GeneID 29957) | 1 | -0.643 | -1.56 | 3.48
SLC25A24 (GeneID 29957) | 2 | 2.12 | 17.9 | 10.1
SLC25A24 (GeneID 29957) | 3 | 5.64 (active) | 42.7 | 25.5
ZNF773 (GeneID 374928) | 1 | -1.42 | -7.04 | 0.67
ZNF773 (GeneID 374928) | 2 | -0.759 | -2.37 | 2.34
ZNF773 (GeneID 374928) | 3 | 0.0416 | 3.26 | 4.67
NAIPP3 (GeneID 643784) | 1 | -0.0633 | 2.52 | 4.6
NAIPP3 (GeneID 643784) | 2 | 2.43 | 20 | 11
NAIPP3 (GeneID 643784) | 3 | 0.355 | 5.47 | 4.98
GCDH (GeneID 2639) | 1 | 4.28 | 33.1 | 17.3
GCDH (GeneID 2639) | 2 | 2.18 | 18.3 | 12.2
GCDH (GeneID 2639) | 3 | 2.62 | 21.4 | 11.3
SNX25 (GeneID 83891) | 1 | 1.02 | 10.1 | 8.54
SNX25 (GeneID 83891) | 2 | 0.0951 | 3.64 | 6.94
SNX25 (GeneID 83891) | 3 | 0.364 | 5.53 | 6.2
ACAP3 (GeneID 116983) | 1 | 0.71 | 7.96 | 9.37
ACAP3 (GeneID 116983) | 2 | -0.587 | -1.16 | 4.04
ACAP3 (GeneID 116983) | 3 | -1.1 | -4.81 | 2.9
RAX (GeneID 30062) | 1 | 1.3 | 12.1 | 8.72
RAX (GeneID 30062) | 2 | -1.22 | -5.62 | 1.65
RAX (GeneID 30062) | 3 | -0.246 | 1.24 | 6.52
ZNF585A (GeneID 199704) | 1 | -0.657 | -1.66 | 2.52
ZNF585A (GeneID 199704) | 2 | 0.158 | 4.08 | 4.58
ZNF585A (GeneID 199704) | 3 | -0.198 | 1.57 | 4.08
MS4A5 (GeneID 64232) | 1 | -0.351 | 0.497 | 4.41
MS4A5 (GeneID 64232) | 2 | -0.0501 | 2.62 | 6.73
MS4A5 (GeneID 64232) | 3 | -0.325 | 0.68 | 4.59
CDC50A (GeneID 55754) | 1 | -0.41 | 0.0797 | 4.55
CDC50A (GeneID 55754) | 2 | 0.573 | 7 | 7.04
CDC50A (GeneID 55754) | 3 | 0.0651 | 3.43 | 4.23
ING2 (GeneID 3622) | 1 | 1.52 | 13.7 | 8.89
ING2 (GeneID 3622) | 2 | -0.399 | 0.157 | 4.92
ING2 (GeneID 3622) | 3 | 3.54 | 27.9 | 13.2
FBLIM1 (GeneID 54751) | 1 | 0.401 | 5.79 | 6.38
FBLIM1 (GeneID 54751) | 2 | -0.304 | 0.831 | 4.12
FBLIM1 (GeneID 54751) | 3 | 0.201 | 4.38 | 7.94
